Experimental data from US11420994B2, “Carbon-monoxide-releasing molecules and therapeutic applications thereof” (GEORGIA STATE UNIVERSITY RESEARCH FOUNDATION, INC., priority 2016, dated 2022).

Tested on: RAW 264.7 cells
Test: Intracellular CO release, fluorescence imaging
Assay type: cell-based, mouse
Conditions: 25, 50 μM, 4 hours at 37° C.; blue fluorescence of cyclized product (105, 127) or COP-1 probe (119)

Row | SMILES | CO release in cells
1 | C#CC(C)(C)OC(=O)C1=C2C(=C(c3ccccc3)C1=O)c1cccc3cccc2c13 [Compound 105] | easily confirmed
2 | C#CCOC(=O)C1=C(c2ccccc2)C(c2ccccc2)=C(c2ccccc2)C1=O [Compound 119] | verified
3 | C#CCN(c1ccccc1C1=C2C(=C(C(=O)N3CCOCC3)C1=O)c1cccc3cccc2c13)S(C)(=O)=O [Compound 127] | easily confirmed
